# Experimental data as given in the supplement of paper PMC7024190.
# Some of the results follow. This data set is noisy: repeats of one test often differ as much as different tests do.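 A first-round screen of about ten thousand compounds sought those raising reporter output, using human embryonic kidney cells briefly transfected with a plasmid carrying a Renilla luciferase gene driven by the HSV-TK promoter.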
# System: HEK 293FT
# Assay: log relative Renilla luciferase luminescence (reporter expression vs reference, reference not stated) (log (base not stated)); higher = higher recombinant reporter expression
# Conditions: 10 µM; time after transfection 48 h
# Description: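 HEK 293FT cells transiently transfected with pRL-TK (Renilla luciferase) were treated with compounds at 10 uM and luminescence was read about 42 h later. Values are log relative Renilla luminescence (log base and reference not stated). Single-pass screen; 2080 natural products library.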
row,SMILES,log
1,Oc1ccc([C@H]2Oc3cc(O)cc(O)c3C[C@@H]2O)cc1 [(+)-Afzelechin],-0.244
2,C/C(=C/CC[C@@H](C)[C@H]1CC[C@@]2(C)C3=C(CC[C@]12C)[C@@]1(C)CCC(=O)C(C)(C)[C@@H]1CC3=O)C(=O)O [Ganoderic acid DM],0.228
3,O=c1c(O[C@@H]2O[C@H](CO)[C@@H](O)[C@H](O)[C@H]2O)c(-c2ccc(O)cc2)oc2cc(O)cc(O)c12 [Astragalin],-0.198
4,COC(=O)c1ccc2[nH]c3ccccc3c2c1 [Methyl 3-carbazolecarboxylate],-0.071
5,CCOC(=O)c1cc(O)c(O)c(O)c1 [Ethyl gallate],0.0016
6,COc1cc(OC)c2c(c1)O[C@@]1(c3ccc(OC)c(O)c3)[C@H](c3ccccc3)[C@@H](C(=O)N(C)C)[C@@H](O)[C@@]21O [3'-Hydroxyrocaglamide],-1.18
7,O=C(/C=C/c1ccc(O)cc1)NCCc1ccc(O)cc1 [N-p-trans-Coumaroyltyramine],-0.382
8,O=C(O)CCc1nccc2c1[nH]c1ccccc12 [Beta-Carboline-1-propanoic acid],-0.186
9,C[C@@H]1O[C@@H](Oc2c(-c3ccc(O)c(O)c3)oc3cc(O)cc(O)c3c2=O)[C@H](O)[C@H](O)[C@H]1O [Quercetin 3-O-alpha-L-rhamnoside],0.0852
10,COC[C@H](Cc1ccc(OC)c(OC)c1)[C@H](COC)Cc1ccc(OC)c(OC)c1 [Phyllanthin],-0.02
11,"CC1(C)CC[C@]2(C(=O)O)CC[C@]3(C)C(=CC[C@@H]4[C@@]5(C)C[C@@H](O)[C@@H](O)[C@@](C)(CO)[C@@H]5CC[C@]43C)[C@@H]2C1 [2,3,23-Trihydroxy-12-oleanen-28-oic acid]",-0.0704

# Two records picked at random from the list so far:
row,SMILES,log
11,"CC1(C)CC[C@]2(C(=O)O)CC[C@]3(C)C(=CC[C@@H]4[C@@]5(C)C[C@@H](O)[C@@H](O)[C@@](C)(CO)[C@@H]5CC[C@]43C)[C@@H]2C1 [2,3,23-Trihydroxy-12-oleanen-28-oic acid]",-0.0704
1,Oc1ccc([C@H]2Oc3cc(O)cc(O)c3C[C@@H]2O)cc1 [(+)-Afzelechin],-0.244
